Source: PMC12561186
Results are given in words; binding and its absence hold for the method and conditions named. Binding seen in cells or lysates may run through a third protein. Some binding calls cover weakened binding; strength is not graded here.

Protein sequences, listed by entry. Tags and fused reporters are not part of them.
UniProt O60678: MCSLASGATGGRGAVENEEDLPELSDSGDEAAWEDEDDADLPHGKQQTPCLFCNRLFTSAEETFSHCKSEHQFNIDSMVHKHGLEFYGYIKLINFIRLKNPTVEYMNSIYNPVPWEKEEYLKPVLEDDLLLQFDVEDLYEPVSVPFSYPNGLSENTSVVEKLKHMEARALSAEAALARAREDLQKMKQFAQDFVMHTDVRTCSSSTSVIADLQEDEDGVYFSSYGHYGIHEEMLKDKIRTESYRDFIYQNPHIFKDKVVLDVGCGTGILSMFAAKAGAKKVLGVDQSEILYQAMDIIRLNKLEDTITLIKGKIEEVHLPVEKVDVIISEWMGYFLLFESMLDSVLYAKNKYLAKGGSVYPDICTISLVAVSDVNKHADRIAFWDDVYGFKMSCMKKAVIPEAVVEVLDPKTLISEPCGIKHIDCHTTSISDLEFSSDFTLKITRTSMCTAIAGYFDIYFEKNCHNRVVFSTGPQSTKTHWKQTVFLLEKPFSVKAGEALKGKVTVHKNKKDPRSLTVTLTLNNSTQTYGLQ
UniProt P23526: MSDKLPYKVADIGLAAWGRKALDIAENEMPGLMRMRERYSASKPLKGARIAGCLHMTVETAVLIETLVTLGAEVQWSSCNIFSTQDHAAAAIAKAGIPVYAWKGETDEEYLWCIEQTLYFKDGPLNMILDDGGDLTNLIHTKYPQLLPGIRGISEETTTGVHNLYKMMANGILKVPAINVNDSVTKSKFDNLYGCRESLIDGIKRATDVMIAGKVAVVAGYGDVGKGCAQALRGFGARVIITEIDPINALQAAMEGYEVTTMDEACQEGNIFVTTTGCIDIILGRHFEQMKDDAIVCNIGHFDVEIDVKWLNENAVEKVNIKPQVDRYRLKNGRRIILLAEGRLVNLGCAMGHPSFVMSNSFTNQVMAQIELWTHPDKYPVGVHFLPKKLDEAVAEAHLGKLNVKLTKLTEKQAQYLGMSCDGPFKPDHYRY

Columns and labels:
PRMT3, exogenous = PRMT3, exogenous (UniProt O60678); test: co-IP; exogenously expressed proteins; cells lysed in RIPA buffer at 4°C, indicated antibodies overnight at 4°C, protein A/G agarose beads, western blot
STIP1, exogenous = STIP1, exogenous (UniProt P31948); test: as above
[1] = target: protein arginine methyltransferase 3 (PRMT3), endogenous (human (endogenous in ESCC cells)) (UniProt O60678); test: co-IP; endogenous proteins; cells lysed in RIPA buffer at 4°C, indicated antibodies overnight at 4°C, protein A/G agarose beads, four washes with RIPA, western blot; AHCY-LDHA also after STIP1 knockdown or overexpression
[2] = target: stress‐induced phosphoprotein 1 (STIP1), endogenous (human (endogenous in ESCC cell lines KYSE450, KYSE510)) (UniProt P31948); test: as above

Row | Substance | binding (PRMT3, exogenous) | binding (STIP1, exogenous) | binding [1] | binding [2]
1 | AHCY, exogenous (from UniProt P23526 1-432) (enzyme) | binds | binds | – | –
2 | adenosylhomocysteinase (AHCY), endogenous (from UniProt P23526 1-432) (enzyme) | – | – | binds | binds
